From publication PMC9489782
No constants are given. Whether binding was seen depends on the method and setting.

Amino acid sequences for entries named in this document (tags omitted). Residues count along the entry.
UniProt Q9BXP8, residues 235-1791: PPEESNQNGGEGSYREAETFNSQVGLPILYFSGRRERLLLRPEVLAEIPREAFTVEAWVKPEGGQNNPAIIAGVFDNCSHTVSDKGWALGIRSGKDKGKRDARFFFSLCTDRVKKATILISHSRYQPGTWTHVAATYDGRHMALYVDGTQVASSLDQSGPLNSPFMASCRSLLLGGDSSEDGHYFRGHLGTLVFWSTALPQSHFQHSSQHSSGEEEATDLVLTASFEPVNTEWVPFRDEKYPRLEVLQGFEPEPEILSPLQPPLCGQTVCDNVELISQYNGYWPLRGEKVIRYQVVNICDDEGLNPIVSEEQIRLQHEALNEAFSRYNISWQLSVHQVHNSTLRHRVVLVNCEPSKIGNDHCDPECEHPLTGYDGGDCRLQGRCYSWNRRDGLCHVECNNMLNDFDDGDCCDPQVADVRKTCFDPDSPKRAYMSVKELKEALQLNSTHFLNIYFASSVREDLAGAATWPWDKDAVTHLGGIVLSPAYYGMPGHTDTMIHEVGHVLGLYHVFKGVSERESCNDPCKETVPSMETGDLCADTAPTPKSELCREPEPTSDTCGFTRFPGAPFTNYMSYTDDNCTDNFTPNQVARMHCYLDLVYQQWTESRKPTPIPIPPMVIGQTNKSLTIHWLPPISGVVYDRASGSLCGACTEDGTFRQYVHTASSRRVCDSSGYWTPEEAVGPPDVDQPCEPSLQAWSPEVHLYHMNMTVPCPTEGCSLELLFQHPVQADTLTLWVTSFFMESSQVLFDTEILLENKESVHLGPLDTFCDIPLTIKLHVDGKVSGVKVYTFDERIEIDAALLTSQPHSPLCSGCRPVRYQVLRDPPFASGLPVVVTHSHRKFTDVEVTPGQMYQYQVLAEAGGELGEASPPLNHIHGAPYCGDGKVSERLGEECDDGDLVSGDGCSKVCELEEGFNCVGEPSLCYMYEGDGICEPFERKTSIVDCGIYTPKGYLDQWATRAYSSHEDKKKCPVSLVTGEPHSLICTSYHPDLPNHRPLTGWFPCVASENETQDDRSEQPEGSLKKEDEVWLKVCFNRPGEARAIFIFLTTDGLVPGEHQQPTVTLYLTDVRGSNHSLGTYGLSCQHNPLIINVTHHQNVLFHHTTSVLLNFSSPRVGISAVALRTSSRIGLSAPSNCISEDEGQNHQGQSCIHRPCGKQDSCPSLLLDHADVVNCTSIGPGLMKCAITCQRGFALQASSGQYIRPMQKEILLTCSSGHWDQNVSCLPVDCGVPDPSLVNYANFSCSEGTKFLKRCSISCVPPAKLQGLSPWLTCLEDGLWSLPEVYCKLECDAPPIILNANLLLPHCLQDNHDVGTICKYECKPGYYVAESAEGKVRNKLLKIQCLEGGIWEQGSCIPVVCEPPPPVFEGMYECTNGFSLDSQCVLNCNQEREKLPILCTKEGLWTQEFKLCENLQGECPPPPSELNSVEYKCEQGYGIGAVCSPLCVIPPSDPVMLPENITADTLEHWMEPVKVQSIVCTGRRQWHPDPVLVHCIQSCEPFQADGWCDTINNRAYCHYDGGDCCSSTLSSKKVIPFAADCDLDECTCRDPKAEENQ

Target: WT PAPP-A2 (human) (UniProt Q9BXP8)
Assay: SEC-MALS; Superdex200 Increase 10/300 GL in PBS, 0.5 mL/min; PAPP-A and PAPP-A (E483A) 100 uL of 1 mg/mL; PAPP-A2 100 uL of 1, 3 and 6 mg/mL; both purified

Substance: WT PAPP-A2 (from UniProt Q9BXP8 235-1791) (enzyme)
- binding: no binding (tested: 1 mg/mL, 3 mg/mL, and 6 mg/mL)
